# Results as given in PubChem BioAssay AID2685 (National Center for Advancing Translational Sciences (NCATS), 2010).
# The whole screen tested about 320,000 compounds, of which about 2,100 (0.66%) were called active. The shares of active, inactive and inconclusive entries below differ from those in the screen. The call rests on the fitted dose curve; in most records, active means well fitted inhibition curve with a large enough effect in the signal ratio, with a control signal flat (not every such curve was filed as active); inconclusive means small, poorly fitted or top-dose-only effect, or effect the other way, or a change in a side signal; inactive means flat fitted curve, though single readings scatter; the % refers to the signal ratio. A potency beside an inconclusive call is a rough fit, not a confirmed value.
# Assay: qHTS Assay for Lipid Storage Modulators in Drosophila S3 Cells
# Details: BODIPY lipid droplet fluorescence, 18-24 h, cells fed with added oleic acid; lipid storage change, negative = inhibition: at 46.1 µM (top of the series) unless noted
# Method in brief: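 Drosophila S3 cells loaded with oleic acid (400 uM, as added) and compounds at several concentrations; lipid droplets imaged by 488-nm laser-scanning cytometry, 500–530 nm intensity and object ratio to cell channel. Percent activity normalized to 20 uM Triacsin C.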
# On the % scale 0 is the no-effect control and ±100 the full control effect; potency means the concentration at half of the fitted maximal effect.
SMILES,"lipid storage change, negative = inhibition",Potency
CCOC(=O)c1c(-n2c(C)cc(C=C3C(=O)NC(=S)NC3=O)c2C)sc2c1CCCC2,inconclusive: -21.8%,–
Cc1cccc(-n2c(O)c(C=Nc3ccccc3N)c(=O)[nH]c2=O)c1,–,"inconclusive: 8.2 µM [activator, partial curve]"
CN(C)C(CNC(=O)Cc1c(Cl)cccc1Cl)c1ccccc1 (stereo unspecified),inconclusive: -4.54%,–
COc1ccc(OCC(=O)Nc2ccc(Cl)cc2C(=O)c2ccccc2)cc1,–,"inconclusive: 16.4 µM [falling, single point]"
CCOc1ccc(N2C(=O)/C(=C/c3ccco3)C(=O)NC2=S)cc1,inconclusive: 7.82%,–
Cc1nn(Cc2ccccc2Cl)c(Cl)c1C(=O)O,inconclusive: -10.9%,–
CCOC(=O)C1=C(N)OC2=C(C(=O)CCC2)C12C(=O)N(C)c1ccccc12 (stereo unspecified),inconclusive: -35.9%,–
COCCNC(=O)N1[C@H]2CC[C@@H]1C(C(=O)OC)=C(c1ccc(OC)c(OC)c1)C2,inconclusive: 8.43%,–
O=S(=O)(c1ccc(O)cc1)c1ccc(O)cc1,–,"inconclusive: 29.1 µM [rising, single point]"
Oc1ccccc1-[n+]1c(-c2ccccc2)cc(-c2ccccc2)cc1-c1ccccc1,inconclusive: 16.7%,–
CC(=O)Nc1ccc(NC(=O)CCn2c(=O)oc3ccccc32)cc1,–,"inconclusive: 29.1 µM [activator, single point]"
C=CCn1c(O)c(C(C)=NCCCO)c(=O)[nH]c1=O,inconclusive: 6.67%,–
CCOC(=O)C(O)(c1ccc(N(CC)S(=O)(=O)c2ccccc2)cc1)C(F)(F)F (stereo unspecified),inactive,–
Cc1oc2ccc(OC(=O)N(C)C)cc2c1C(=O)OC(C)C,inconclusive: 43.1%,–
Fc1ccc(Cn2nnnc2C(c2ccc(F)cc2)N2CC=C(c3ccc(F)cc3)CC2)cc1 (stereo unspecified),inconclusive: 8.87%,–
O=c1[nH]c(=O)n(C2CCCCC2)c(O)c1/C=N/N1CCCCC1c1cccnc1 (stereo unspecified),inconclusive: 36.4%,–
COc1ccc(/C=C2/C(=O)NC(=O)N(Cc3ccco3)C2=O)cc1,inconclusive: -1.88%,–
CC(C)CC12CN3CCN(CC(C3)C1O)C2 (stereo unspecified),inconclusive: -22.9%,–
CCOc1cc2c(cc1OCC)-n1cccc1C(c1ccc(F)c(OC)c1)NC2 (stereo unspecified),inconclusive: -13.7%,–
Cc1ccc(-n2c(C)nc3cc(Cl)ccc3c2=O)nc1,inconclusive: 12.4%,–
CCCCC(=O)N/N=C/c1c(O)n(CC)c(=S)n(CC)c1=O,inconclusive: -39.3%,–

SMILES,"lipid storage change, negative = inhibition",Potency
CCCCCCC(N)CC(=O)O (stereo unspecified),–,"inconclusive: 29.1 µM [falling, single point]"
COc1ccc(CNCCc2ccccc2F)c(OC)c1C,inconclusive: -6.64%,–
CCCCn1c(O)c(C(CC)=Nc2ccc(OCC)cc2)c(=O)[nH]c1=O,inconclusive: 95.2%,–
C=CCn1c(O)c(C(C)=Nc2cccc(C(F)(F)F)c2)c(=O)[nH]c1=O,inconclusive: -9.02%,–
CCOC(=O)c1c(C)n(Cc2ccccc2)c2ccc(OCC(O)Cn3nc(C)cc3C)cc12 (stereo unspecified),inconclusive: -2.11%,–
CC(C)Oc1cc(-n2c(=S)[nH]c3ccccc3c2=O)c(Cl)cc1Cl,inconclusive: 20.3%,–
COc1ccc(N=Cc2c(O)n(C)c(=O)n(C)c2=O)cc1,inconclusive: 8.27%,–
COC(=O)C1=C(c2c(C)noc2C)C[C@@H]2CC[C@H]1N2C(=O)N1CCC(C)CC1,inconclusive: 10.3%,–
CC(C)CN1CCN(Cc2cccc3c2OCO3)CC1CCO (stereo unspecified),inconclusive: 12.1%,–
CC(=O)c1cc(C#N)c(N2CCN(C)CC2)nc1C,inconclusive: 18.5%,–
CC1CN=C(NC(C)c2ccccc2)S1 (stereo unspecified),–,"inconclusive: 2.06 µM [cytotoxic, single point]"
COC(=O)C1=C(c2ccc(OC(F)(F)F)cc2)C[C@@H]2CC[C@H]1N2C(=O)NCCc1ccccc1,–,"inconclusive: 6.51 µM [activator, partial curve]"
O=C(Cc1ccccc1)OCCN1CCCCC1,inconclusive: -9%,–
CCN(CC)C(=O)c1ccc(NC(=O)c2cccc(S(=O)(=O)N3CCN(Cc4ccccc4)CC3)c2)cc1,inconclusive: 3.38%,–
Fc1ccc(N2CCN(Cc3cc4c(cc3Br)OCO4)CC2)cc1,inconclusive: -85.6%,–
CCC(C)/C=C(C)/C=C/C1=CC2=C(Cl)C(=O)C(C)(OC(C)=O)C(=O)C2=CO1 (stereo unspecified),–,"inconclusive: 23.1 µM [cytotoxic, partial curve, poor fit]"
CCC(=NCc1ccc(F)cc1)c1c(O)n(C)c(=O)n(C)c1=O,inconclusive: -0.519%,–
C1CNC2NCCNC2N1 (stereo unspecified),inconclusive: -47.3%,–
Cc1cc(NC(=O)CCl)nn1C,inconclusive: -26.3%,–
CC1CC2(O)c3no[n+]([O-])c3CCC2N1O (stereo unspecified),–,"inconclusive: 18.4 µM [falling, single point]"
CC1(C)OC1COc1c2occc2cc2ccc(=O)oc12 (stereo unspecified),–,"inconclusive: 0.291 µM [activator, full curve]"

SMILES,"lipid storage change, negative = inhibition",Potency
COc1cc(C2NCc3ccccc3-n3cccc32)ccc1O (stereo unspecified),inconclusive: 31.9%,–
Cc1cccc(-n2c(O)c(C=Nc3ccc(S(N)(=O)=O)cc3)c(=O)[nH]c2=O)c1,–,"inconclusive: 16.4 µM [falling, single point]"
CC(C)(C#CCCCCC#CC(C)(C)[N+](C)(C)C)[N+](C)(C)C,inconclusive: -25.5%,–
CNP(=S)(NC)OCCOc1ccc(OC)cc1,inconclusive: 18.6%,–
c1ccc2c(CCNC3=NCCC3)c[nH]c2c1,inconclusive: 8.83%,–
CCCC(C)C1(CC)C(=O)NC(=Nc2ccc(OC)cc2)NC1=O (stereo unspecified),inconclusive: -0.176%,–
C=C(COC(C)=O)CC1CC(O)[C@]2(C)OC3CC4OC5C[C@]6(C)O[C@]7(C)CCC8OC9C[C@]%10(C)OC%11C(C)=CC(=O)OC%11CC%10OC9C[C@@H](C)C8OC7CC6O[C@]5(C)C/C=C\C4OC3CC2O1 (stereo partly specified),inactive,–
Clc1ccc(C(Cl)(Cl)Cl)c(Cl)c1,inconclusive: 12.9%,–
CCCCn1c(=O)c(C(=O)NCc2ccc(Cl)cc2)c(O)c2ccccc21,–,"inconclusive: 29.1 µM [falling, single point]"
O=C(CCC(=O)N1CC2C[C@@H](C1)Cn1c2cccc1=O)NCCc1ccccc1F,–,"inconclusive: 29.1 µM [activator, single point]"
CCCSP1(=S)NCCCO1 (stereo unspecified),inconclusive: 3.93%,–
CCOC(=O)N1CCN(C(C)C(=O)c2c[nH]c3ccccc23)CC1 (stereo unspecified),inconclusive: 61.2%,–
CNC(=O)Oc1cccc(-c2cn3cc(Cl)ccc3n2)c1,inconclusive: 4.2%,–
Nc1c(C(=O)NCC2CCCO2)c2nc3ccccc3nc2n1Cc1ccco1 (stereo unspecified),inconclusive: -20.6%,–
COc1cccc(CCNCc2c(F)cccc2F)c1,inconclusive: -25.1%,–
O=P(Nc1cccc(F)c1)(Oc1ccccc1F)Oc1ccccc1F,inactive,–
CC1C(C)N1CC(O)Cn1ccnc1[N+](=O)[O-] (stereo unspecified),inconclusive: -7.75%,–
O=C(NC1CC1)C1CSC(c2cccnc2)=N1 (stereo unspecified),inconclusive: -32.5% [at 0.0737 µM],–
c1coc(CNCCc2c[nH]c3ccccc23)c1,–,"inconclusive: 6.51 µM [falling, single point]"
O=C(COc1ccc2ccc(=O)oc2c1)N1C[C@H]2C[C@@H](C1)c1cccc(=O)n1C2,inconclusive: -23.7%,–
Cc1cc(OCC(=O)NC(Cc2ccc(Cl)cc2)C(=O)O)c2c3c(c(=O)oc2c1)CCCC3 (stereo unspecified),inconclusive: 1%,–

SMILES,"lipid storage change, negative = inhibition",Potency
CCN(CC)C(=O)c1ccc(N(Cc2ccccc2)S(C)(=O)=O)cc1,inconclusive: 13.3%,–
CCCC(=O)NC(Oc1ccc(Cl)cc1Cl)C(Cl)(Cl)Cl (stereo unspecified),inconclusive: -25.7%,–
c1ccc(CCN2CCC(N3CCN(c4ccccc4)CC3)CC2)cc1,inconclusive: 4.23%,–
CC[C@@]1(O)C(=O)OCc2c1cc1n(c2=O)Cc2cc3ccccc3nc2-1,inconclusive: -14%,–
COC(=O)C1=C(c2ccc(-c3ccccc3)c(F)c2)C[C@@H]2CC[C@H]1N2C(=O)NCCO,inconclusive: 6.9%,–
CN(C)[C@@H]1C(=O)C(C(N)=O)=C(O)[C@@]2(O)C(=O)C3=C(O)c4c(O)ccc(Cl)c4[C@@](C)(O)[C@H]3C[C@@H]12,inconclusive: -60.9%,–
N[C@@H](Cc1c[nH]c2ccccc12)c1nnc(SCc2ccccc2)o1,inconclusive: -60.3%,–
CC(CCc1ccccc1)NC(C)C(O)c1ccc(O)cc1 (stereo unspecified),inconclusive: -1.96%,–
COc1cc2c(cc1OC)C(C1c3cc4c(cc3CCN1C)OCO4)OC2=O (stereo unspecified),–,"inconclusive: 29.1 µM [activator, single point]"
O=c1[nH]c(=O)n(-c2ccccc2)c(O)c1N=Nc1ccc(Br)cc1,inconclusive: -4.12%,–
Cc1nc2ccccc2c(=O)n1-n1cnnc1,inconclusive: 125%,–
Cn1c(O)c(C=NC2CCCCC2)c(=O)[nH]c1=S,inactive,–
CCC/C(=N\O)c1c[nH]c2ccccc12,inconclusive: -44.3%,–
CC(C)(C)c1ccc(O)c(N=Cc2c(O)ccc3ccccc23)c1,–,"inconclusive: 25.9 µM [cytotoxic, single point]"
COC(=O)C1=C(c2ccc(OC(F)(F)F)cc2)C[C@@H]2CC[C@H]1N2C(=O)NCCNC(C)=O,inconclusive: 3.8%,–
C=CCN1C(=O)C2(C(C(=O)OCC)=C(N)Oc3ccccc32)C2=C1CCCC2=O (stereo unspecified),inconclusive: 24.5%,–
CC(C)OCC(O)CN1CC2C[C@@H](C1)Cn1c2cccc1=O (stereo partly specified),inconclusive: 436%,–
Cc1nn(Cc2ccccc2)c(C)c1C=C1C(=O)NC(=S)NC1=O,inconclusive: 0.343%,–
